Values quoted from earlier work as cited in patent US5877165A, “Boronated porhyrins and methods for their use” (priority 1997, dated 1999).
At least one read-out could not be matched to a standard name with certainty.

Details: mice; weight loss, thrombocytopenia, altered hepatic enzymes (Miura et al., 1992); cited from earlier work

## 3,8-divinyl-nido-carboranyldeuteroporphyrin [VCDP]
  dose above which toxic effects are exerted: greater than 210 μg VCDP/gbw
